Source: the supplement of paper PMC12067093, “Discovery and optimisation of a covalent ligand for TRIM25 and its application to targeted protein ubiquitination” (Chemical Science, 2025)
Some of the results follow.

Protein sequences, listed by entry. Tags and fused reporters are not part of them. Lines headed by an entry give the natural chain unless they say otherwise; changes in a name come on top.
UniProt P07332: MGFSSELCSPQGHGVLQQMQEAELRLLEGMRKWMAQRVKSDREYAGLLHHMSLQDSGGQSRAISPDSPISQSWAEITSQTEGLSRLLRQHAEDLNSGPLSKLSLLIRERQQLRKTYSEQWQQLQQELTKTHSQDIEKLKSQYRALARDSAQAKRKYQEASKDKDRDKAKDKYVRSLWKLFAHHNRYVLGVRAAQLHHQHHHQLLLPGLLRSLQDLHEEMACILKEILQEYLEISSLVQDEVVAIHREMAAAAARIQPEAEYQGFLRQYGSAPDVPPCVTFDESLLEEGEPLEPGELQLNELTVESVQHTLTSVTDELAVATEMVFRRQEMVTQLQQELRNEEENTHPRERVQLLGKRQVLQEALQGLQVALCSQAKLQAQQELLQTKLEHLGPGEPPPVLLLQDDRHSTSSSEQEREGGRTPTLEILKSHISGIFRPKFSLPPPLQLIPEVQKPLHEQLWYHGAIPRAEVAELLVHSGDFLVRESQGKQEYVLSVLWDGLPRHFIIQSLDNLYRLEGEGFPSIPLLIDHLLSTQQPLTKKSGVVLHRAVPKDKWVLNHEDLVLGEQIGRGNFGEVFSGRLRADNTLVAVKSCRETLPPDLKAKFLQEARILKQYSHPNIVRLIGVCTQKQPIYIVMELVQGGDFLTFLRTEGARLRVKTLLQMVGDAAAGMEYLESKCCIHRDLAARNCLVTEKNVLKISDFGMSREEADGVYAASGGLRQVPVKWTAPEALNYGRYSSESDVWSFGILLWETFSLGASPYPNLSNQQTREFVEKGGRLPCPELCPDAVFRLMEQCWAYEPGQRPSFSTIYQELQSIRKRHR
UniProt Q9BXW9: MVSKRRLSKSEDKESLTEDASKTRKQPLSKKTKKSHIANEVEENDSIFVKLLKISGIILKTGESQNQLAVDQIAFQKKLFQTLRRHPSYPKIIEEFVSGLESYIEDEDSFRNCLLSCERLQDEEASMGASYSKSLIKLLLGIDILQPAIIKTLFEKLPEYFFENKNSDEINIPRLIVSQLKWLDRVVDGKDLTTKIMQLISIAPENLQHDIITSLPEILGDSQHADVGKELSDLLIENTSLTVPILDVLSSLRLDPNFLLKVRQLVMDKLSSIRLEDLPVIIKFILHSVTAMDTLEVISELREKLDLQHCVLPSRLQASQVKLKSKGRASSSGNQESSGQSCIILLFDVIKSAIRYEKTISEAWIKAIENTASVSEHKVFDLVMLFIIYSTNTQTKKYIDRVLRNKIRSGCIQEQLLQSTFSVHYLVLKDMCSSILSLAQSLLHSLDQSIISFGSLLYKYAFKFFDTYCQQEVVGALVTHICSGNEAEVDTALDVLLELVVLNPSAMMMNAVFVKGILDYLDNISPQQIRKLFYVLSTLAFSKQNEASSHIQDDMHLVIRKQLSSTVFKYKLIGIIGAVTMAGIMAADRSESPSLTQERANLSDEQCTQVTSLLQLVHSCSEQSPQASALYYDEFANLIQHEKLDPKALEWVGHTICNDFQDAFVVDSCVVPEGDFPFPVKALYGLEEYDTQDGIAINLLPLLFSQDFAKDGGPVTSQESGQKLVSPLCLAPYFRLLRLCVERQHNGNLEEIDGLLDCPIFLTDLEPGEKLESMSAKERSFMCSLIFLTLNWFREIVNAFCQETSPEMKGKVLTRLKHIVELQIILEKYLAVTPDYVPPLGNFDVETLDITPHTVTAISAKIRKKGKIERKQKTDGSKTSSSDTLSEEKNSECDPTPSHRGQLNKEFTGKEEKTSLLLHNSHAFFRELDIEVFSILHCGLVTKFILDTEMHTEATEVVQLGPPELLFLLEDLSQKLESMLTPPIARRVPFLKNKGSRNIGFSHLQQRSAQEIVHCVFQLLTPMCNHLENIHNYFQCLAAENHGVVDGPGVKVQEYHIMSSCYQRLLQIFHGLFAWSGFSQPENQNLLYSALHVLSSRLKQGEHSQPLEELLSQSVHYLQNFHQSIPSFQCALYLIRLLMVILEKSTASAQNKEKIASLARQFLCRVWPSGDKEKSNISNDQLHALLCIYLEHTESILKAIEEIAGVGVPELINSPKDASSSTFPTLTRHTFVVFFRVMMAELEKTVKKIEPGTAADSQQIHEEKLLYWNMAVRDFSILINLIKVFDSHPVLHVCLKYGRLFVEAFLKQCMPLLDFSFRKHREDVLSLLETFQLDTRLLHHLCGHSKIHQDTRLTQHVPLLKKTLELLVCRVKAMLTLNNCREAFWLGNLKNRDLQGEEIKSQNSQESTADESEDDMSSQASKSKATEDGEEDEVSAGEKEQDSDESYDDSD
UniProt Q5JRC9: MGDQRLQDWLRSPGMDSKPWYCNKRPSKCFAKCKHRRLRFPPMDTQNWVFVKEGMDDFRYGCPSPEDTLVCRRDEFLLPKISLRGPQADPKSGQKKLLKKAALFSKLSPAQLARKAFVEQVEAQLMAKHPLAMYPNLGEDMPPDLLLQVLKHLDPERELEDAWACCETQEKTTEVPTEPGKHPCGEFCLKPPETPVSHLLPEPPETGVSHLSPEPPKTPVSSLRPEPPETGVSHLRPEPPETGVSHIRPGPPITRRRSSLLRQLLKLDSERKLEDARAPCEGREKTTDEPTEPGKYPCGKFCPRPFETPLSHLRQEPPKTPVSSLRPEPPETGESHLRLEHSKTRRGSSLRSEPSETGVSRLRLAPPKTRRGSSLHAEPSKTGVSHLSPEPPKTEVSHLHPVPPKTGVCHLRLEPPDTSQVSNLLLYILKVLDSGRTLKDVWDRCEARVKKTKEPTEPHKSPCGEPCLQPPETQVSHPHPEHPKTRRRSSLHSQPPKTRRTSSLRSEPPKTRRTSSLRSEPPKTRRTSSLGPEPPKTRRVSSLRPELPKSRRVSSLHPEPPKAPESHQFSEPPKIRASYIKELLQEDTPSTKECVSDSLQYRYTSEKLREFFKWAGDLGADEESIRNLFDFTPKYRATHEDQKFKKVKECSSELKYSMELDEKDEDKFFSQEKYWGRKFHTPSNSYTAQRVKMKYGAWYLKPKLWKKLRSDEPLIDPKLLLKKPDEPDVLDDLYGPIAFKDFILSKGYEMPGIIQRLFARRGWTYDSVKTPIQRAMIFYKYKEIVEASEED

Compound: Cc1cc(ccc1-c1ccccc1)C(=O)N1CCCN(CC1)C(=O)CCl [compound 10]
Experiment: probe-labelled cysteine peptide fold change vs DMSO (competition) (log2 fold change); higher = less target engagement (more negative = stronger competition)
Conditions: THP-1, incubation time: 4 h
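Note: competitive profiling in live THP-1 cells: cysteine peptides tagged with an iodoacetamide desthiobiotin (IA-DTB) probe, intensity after compound treatment relative to DMSO-treated cells.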

| Target | probe-labelled cysteine peptide fold change (10 µM) | probe-labelled cysteine peptide fold change (50 µM) |
| --- | --- | --- |
| FES_P07332_372_QVLQEALQGLQVALCSQAK (UniProt P07332) | -0.028 | 0.164 |
| FANCD2_Q9BXW9_1342_LLHHLCGHSK (UniProt Q9BXW9) | -0.0383 | -0.261 |
| FAM47A_Q5JRC9_650_ECSSELK (UniProt Q5JRC9) | 0.18 | 0.0244 |
